# Assay results as given in US20240076389A1.
# Changes are numbered by the printed parent chain. No constants are given. Whether binding was seen depends on the method and setting. Some results given as binding are weak or reduced against the parent protein; the word gives no strength.
# B1: F107-8D12 (antibody, V domains shown)
# VH: QVQLQQPGAELVKPGASVQLSCKASGYTFISFWINWVKQRPGQGLEWMGNIFPGSSSTNYNEKFKSKATLTVDKSSSTAYMQLSSLTSEDSAVYFCARDYYGGSPDYWGQGTTLTVSS
# VL: DIVMSQSPSSLAVSAGERVTMSCKSSQSLLNTRTRKNYLAWYQQKPGQSPKLLIYWASTRESGVPDRFTGSGSGTDFTLTISSVQAEDLAVYYCKQSYNLWTFGGGTKLEIK
# B2: F107-7H5 (antibody, V domains shown)
# VH: QVQLQQPGAELVKPGASVKLSCKASGYTFTSYWINWVKQRPGQGLEWIGNIYPDSSSTNYNEKFKSKATLTVDKSSTTAYIQFSSLTSEDSAVYYCTRDTYGGSPDYWGQGTTLTVSS
# VL: B1 VL with R18K, T32S, N37I, E61Q
# B3: F107-10G1 (antibody, V domains shown)
# VH: EVNLVESGGGVVKPGASLKLSCEASGFTFSNYGMSWVRQTSDKRLEWVASISGGGGRTYYLDNVKGRFIISRENAKNTLYLQMSSLKSEDTALFYCARGARASYFAMDYWGQGSSVTVSS
# VL: VIVMTQSHKFMSTSVGDRVSITCKASQDVTTAVAWYQQKPGQSPKLLIYWASTRHTGVPDRFTGSGSGTDYSLTISNVQTEDLAFYYCQQHFTTPLTFGAGTKLELK
# B4: F111-3C8 (antibody, V domains shown)
# VH: QVQLQQPGAELGKPGTSVKLSCKASGYTFTSYWMHWVKRVPGQGLEWIGNINPNSTSADYNEKFKRKATLTVDKSSSTAYMQLSTLTSEDSAVYYCTRPLMGPYWYFDVWGTGTTVTVSS
# VL: QIVLTQSPAIMSASPGEKVTISCSASSSVSYMYWYQQKPGSSPKPWIYRTSNLASGVPARFSGSGSGTSYSLTISSMEAEDAATYYCQQYHNYPPTFGGGTKLEIK
# B5: F111-5E9 (antibody, V domains shown)
# VH: QIQLVQSGPELKKPGETVKISCKASGYTFTKYGMNWVKQAPGKGLKWMGWINTYTGEPTYADDFKGRFAFSLETSASTAYLQINNLTTEDMVTYFCAKGGYYSNPIYPMDYWGQGTSVTVSS
# VL: DIQMTQTTSSLSASLGDRVTISCRASQDINNYLNWYQQKPDGTVKLLIYYISRLHSGVPSRFSGSGSGTDYSLTISNLELEDVATYFCQQGNTLPFTFGSGTKLEIK
# Target: AXL fragment # 10 (AXL amino acids 26-450, IgL1+IgL2+FN III-1+FN III-2+)
# Experiment: yeast surface display of hAXL fragments (Aga2-HA-(hAXL)-MYC), whole yeast cell ELISA, signal normalised to anti-MYC
row,Binder,binding
1,B1,binds
2,B2,binds
3,B3,binds
4,B4,binds
5,B5,binds
